Results from PMC5543139.

Chains of the proteins cited; added tags and fusions are not shown. A line that says so, or that is headed by a name, gives the form on record, which may keep a tag or linker. Residues count along the entry.
UniProt P47871, 26-477: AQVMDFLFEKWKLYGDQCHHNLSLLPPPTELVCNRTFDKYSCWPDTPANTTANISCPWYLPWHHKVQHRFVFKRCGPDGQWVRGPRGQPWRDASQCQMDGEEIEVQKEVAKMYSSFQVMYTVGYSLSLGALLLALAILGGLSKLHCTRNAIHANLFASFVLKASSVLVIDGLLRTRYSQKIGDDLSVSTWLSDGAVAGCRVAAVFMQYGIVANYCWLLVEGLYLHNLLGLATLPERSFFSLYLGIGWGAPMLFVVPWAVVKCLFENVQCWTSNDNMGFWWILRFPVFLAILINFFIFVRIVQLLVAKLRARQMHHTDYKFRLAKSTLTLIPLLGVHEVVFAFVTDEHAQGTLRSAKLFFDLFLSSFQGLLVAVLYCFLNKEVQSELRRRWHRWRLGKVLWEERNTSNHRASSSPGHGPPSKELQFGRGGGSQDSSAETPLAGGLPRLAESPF
glucagon receptor on CHO-GCGR cells (human), one chain, as listed by the source: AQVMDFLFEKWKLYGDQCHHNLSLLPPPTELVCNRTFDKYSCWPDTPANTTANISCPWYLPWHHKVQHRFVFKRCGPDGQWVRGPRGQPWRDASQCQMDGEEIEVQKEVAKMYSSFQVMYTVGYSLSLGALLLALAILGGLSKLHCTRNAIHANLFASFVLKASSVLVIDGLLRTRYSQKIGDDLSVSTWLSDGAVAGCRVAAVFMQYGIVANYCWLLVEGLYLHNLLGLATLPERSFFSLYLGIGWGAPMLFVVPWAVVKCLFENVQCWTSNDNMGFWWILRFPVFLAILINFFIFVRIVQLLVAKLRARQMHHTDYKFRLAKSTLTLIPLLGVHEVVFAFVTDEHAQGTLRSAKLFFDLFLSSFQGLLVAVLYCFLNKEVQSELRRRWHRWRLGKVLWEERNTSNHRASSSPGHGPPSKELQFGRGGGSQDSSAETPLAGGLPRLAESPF

Columns and labels:
[1] = test system: glucagon receptor on CHO-GCGR cells (human); assay: flow cytometry on live cells; conditions: D-PBS pH 7.4, 5 mM MgCl2, 4.5 g/L glucose, 0.1 mg/mL yeast tRNA, 1 mg/L BSA, 1 h (45 min in Results for Kd), protein on the cell surface, single-stranded DNA
[2] = biological target: glucagon receptor from CHO-GCGR membrane lysate (human) (UniProt P47871); assay: biotin-aptamer pull-down, western blot; conditions: 4 C overnight, salmon sperm DNA, library and beads alone gave no band, D-PBS pH 7.4, 5 mM MgCl2, 4.5 g/L glucose, 0.1 mg/mL yeast tRNA, 1 mg/L BSA, 1 h (45 min in Results for Kd), protein in a lysate after overexpression, label: FAM (flow cytometry), single-stranded DNA
[3] = biological target: endogenous glucagon receptor on HepG2 cells (UniProt P47871); assay: flow cytometry on live cells; conditions: 250 nM, 4 C, binding scarce after gcgr siRNA, D-PBS pH 7.4, 5 mM MgCl2, 4.5 g/L glucose, 0.1 mg/mL yeast tRNA, 1 mg/L BSA, 1 h (45 min in Results for Kd), protein on the cell surface, label: FAM (flow cytometry), biotin (pull-down), single-stranded DNA
[4] = affinity differs between truncations, no binding to Mock cells, 4 C

Sequence	binding result [1, 4]	further results
ATAAGTAGGTATCCGTTTGAAAAACTTTTCTGACCGTCCGACTATGGA [GR-3e]	binds	–
ATCCAGAGTGACGCAGCAGATAAGTAGGTATCCGTTTGAAAAACTTTTCTGACCGTCCGACTATGGA [GR-3a]	binds	–
ATCCAGAGTGACGCAGCAGATAAGTAGGTATCCGTTTGAAAAACTTTTCTGACCGTCCGACTATGGACACGGTGGCTTAGT [GR-3]	–	binding result [2]: binds; binding result ([1]; 37 C, signal almost the same as at 4 C, label: FAM (flow cytometry), biotin (pull-down)): binds; binding result [3]: binds
GACGCAGCAGATAAGTAGGTATCCGTTTGAAAAACTTTTCTGACCGTCCGACTATGGAC [GR-3c]	binds	–
GCAGCAGATAAGTAGGTATCCGTTTGAAAAACTTTTCTGACCGTCCGACTATGGA [GR-3d]	–	binding result ([1]; affinity close to full-length GR-3, no binding to Mock cells, 4 C): binds
GCAGCAGATAAGTAGGTATCCGTTTGAAAAACTTTTCTGACCGTCCGACTATGGACACGGTGGCTTAGT [GR-3b]	binds	–

Construct, isoform or probe ends are uncertain for at least one entry. At least one result comes from cells or an extract, where the contact may be indirect. For some assays here: At least one verdict was read from the data and is not stated in words by the source.
